Assay results: publication PMC9234046
Where two headings read alike, the source gives them in different places. Results are given in words; binding and its absence hold for the method and conditions named. Binding seen in cells or lysates may run through a third protein. Some results given as binding are weak or reduced against the parent protein; the word gives no strength. Where a sequence is shown, tags or fusion partners need not be part of it.

By UniProt entry, the sequences of proteins in these tests, tags left out.
UniProt P16220: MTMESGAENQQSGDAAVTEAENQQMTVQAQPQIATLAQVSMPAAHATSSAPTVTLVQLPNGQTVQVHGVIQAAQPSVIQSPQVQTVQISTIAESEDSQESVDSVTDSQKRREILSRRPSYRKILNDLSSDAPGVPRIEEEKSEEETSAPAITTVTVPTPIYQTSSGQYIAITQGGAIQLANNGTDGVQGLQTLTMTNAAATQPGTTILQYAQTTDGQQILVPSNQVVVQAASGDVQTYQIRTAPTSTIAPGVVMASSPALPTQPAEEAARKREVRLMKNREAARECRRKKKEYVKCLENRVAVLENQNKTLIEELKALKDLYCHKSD

T1: tuftelin 1 (TUFT1)-Flag (human) (UniProt Q9NNX1)
T1 sequence: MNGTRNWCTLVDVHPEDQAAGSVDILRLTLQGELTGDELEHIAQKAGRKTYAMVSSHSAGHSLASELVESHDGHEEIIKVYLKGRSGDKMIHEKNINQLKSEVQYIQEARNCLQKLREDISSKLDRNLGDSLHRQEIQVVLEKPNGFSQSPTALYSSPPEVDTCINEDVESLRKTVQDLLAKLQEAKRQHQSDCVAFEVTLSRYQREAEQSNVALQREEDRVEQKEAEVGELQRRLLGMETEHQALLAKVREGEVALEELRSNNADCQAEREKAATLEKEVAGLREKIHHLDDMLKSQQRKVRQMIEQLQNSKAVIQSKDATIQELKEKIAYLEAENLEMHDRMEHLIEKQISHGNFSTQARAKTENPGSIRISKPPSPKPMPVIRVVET


Experiments:
[1] = molecular target: T1, tuftelin 1 (TUFT1)-Flag (human); experiment: co-IP; anti-Flag antibody crosslinked to magnetic beads, lysate of TUFT1-Flag-overexpressing Huh7 cells, 1 hour at 4°C, PBS washes, western blot
[2] = molecular target: T1, tuftelin 1 (TUFT1)-Flag (human); experiment: as above; remark: listed apart in the source

binding [1]	binding [2]	Molecule
binds		Cyclic AMP-responsive element binding protein 1 (CREB1) (from UniProt P16220 1-327)
	binds	zyxin (ZYX) (protein, UniProt Q15942 1-572) MAAPRPSPAISVSVSAPAFYAPQKKFGPVVAPKPKVNPFRPGDSEPPPAPGAQRAQMGRVGEIPPPPPEDFPLPPPPLAGDGDDAEGALGGAFPPPPPPIEESFPPAPLEEEIFPSPPPPPEEEGGPEAPIPPPPQPREKVSSIDLEIDSLSSLLDDMTKNDPFKARVSSGYVPPPVATPFSSKSSTKPAAGGTAPLPPWKSPSSSQPLPQVPAPAQSQTQFHVQPQPQPKPQVQLHVQSQTQPVSLANTQPRGPPASSPAPAPKFSPVTPKFTPVASKFSPGAPGGSGSQPNQKLGHPEALSAGTGSPQPPSFTYAQQREKPRVQEKQHPVPPPAQNQNQVRSPGAPGPLTLKEVEELEQLTQQLMQDMEHPQRQNVAVNELCGRCHQPLARAQPAVRALGQLFHIACFTCHQCAQQLQGQQFYSLEGAPYCEGCYTDTLEKCNTCGEPITDRMLRATGKAYHPHCFTCVVCARPLEGTSFIVDQANRPHCVPDYHKQYAPRCSVCSEPIMPEPGRDETVRVVALDKNFHMKCYKCEDCGKPLSIEADDNGCFPLDGHVLCRKCHTARAQT
